± gives the uncertainty stated by the source. Many of these values have a large error.
Experiment: self-splicing fitness, log relative to wild type (ln ratio); higher = more splicing; Tetrahymena group I intron in knt gene, E. coli kanamycin selection, DiMSum; sequences stand for … in CUCUCU…GGAGGGAAAAGUUAUCAGGCAUGCACCUGGUAGCUAGUCUUUAAACCAAUAGAUUGCAUCGGUUUAAAAGGCAAGACCGUCAAAUUGCGGGAAAGGGGUCAACAGCCGUUCAGUACCAAGUCUCAGGGGAAACUUUGAGAUGGCCUUGCAAAGGGUAUGGUAAUAAGCUGACGGACAUGGUCCUAACCACGCAGCCAAGUCCUAAGUCAACAGAUCUUCUGUUGAUAUGGAUGCAGUUCACAGACUAAAUGUCGGUCGGGGAAGAUGUAUUCUUCUCAUAAGAUAUAGUCGGACCUCUCCUUAAUGGGAGCUAGCGGAUGAAGUGAUGCAACACUGGAGCCGCUGGGAACUAAUUUGUAUGCGAAAGUAUAUUGAUUAGUUUUGGAGUACUCGUGGUCG
Summary of the method: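 Library with all eight P1ex-region intron nucleotides randomised, intron inside the knt kanamycin-resistance gene on pET-22b(+), in E. coli BL21(DE3). Cells grew overnight at 37°C or 30°C on LB agar with or without 25 μg/mL kanamycin (plus 100 μg/mL carbenicillin, 50 μM IPTG, 0.2% rhamnose), in six replicate transformations. Pooled colonies were amplicon-sequenced on Illumina HiSeq 2500. DiMSum fitness is the error-weighted combination of wild-type-normalised replicate fold changes, kanamycin versus none.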

CUUGAGCAAUAUUACGUUAA
self-splicing fitness (ln) (30 °C): -2.47 ± 0.16
self-splicing fitness (ln) (37 °C): -2.6 ± 0.22

CGAGAGCAAUAUUACGCAAA
self-splicing fitness (ln) (37 °C): -2.74 ± 0.62

CUCUAGCAAUAUUACGGCCC
self-splicing fitness (ln) (37 °C): -2.39 ± 1.1

AACGAGCAAUAUUACGAUAC
self-splicing fitness (ln) (30 °C): -2.52 ± 0.37
self-splicing fitness (ln) (37 °C): -1.97 ± 0.46

ACAGAGCAAUAUUACGACCA
self-splicing fitness (ln) (37 °C): -1.76 ± 0.55

CUGCAGCAAUAUUACGUCAU
self-splicing fitness (ln) (30 °C): -2.86 ± 0.14
self-splicing fitness (ln) (37 °C): -2.06 ± 0.13

UAUGAGCAAUAUUACGUCAA
self-splicing fitness (ln) (30 °C): -3.66 ± 0.52

CGGAAGCAAUAUUACGGUGG
self-splicing fitness (ln) (30 °C): -0.759 ± 0.099
self-splicing fitness (ln) (37 °C): -0.586 ± 0.1

GUUUAGCAAUAUUACGCAGA
self-splicing fitness (ln) (30 °C): -2.86 ± 0.78
self-splicing fitness (ln) (37 °C): -4.28 ± 0.6

UCAAAGCAAUAUUACGGCUC
self-splicing fitness (ln) (30 °C): -3.93 ± 0.74

UCCAAGCAAUAUUACGUAAA
self-splicing fitness (ln) (30 °C): -1.12 ± 0.089
self-splicing fitness (ln) (37 °C): -0.00199 ± 0.11

AGUGAGCAAUAUUACGUCGC
self-splicing fitness (ln) (37 °C): -2.76 ± 0.75

UCCAAGCAAUAUUACGAAUC
self-splicing fitness (ln) (30 °C): -3.6 ± 0.78

CUAGAGCAAUAUUACGCUCA
self-splicing fitness (ln) (30 °C): -3.82 ± 1
self-splicing fitness (ln) (37 °C): -1.39 ± 0.62

CCGGAGCAAUAUUACGAUCU
self-splicing fitness (ln) (30 °C): -1.74 ± 0.57
self-splicing fitness (ln) (37 °C): -1.42 ± 0.68

CUCCAGCAAUAUUACGGCCA
self-splicing fitness (ln) (37 °C): -3.41 ± 0.59

CCGUAGCAAUAUUACGCUUC
self-splicing fitness (ln) (30 °C): -4.52 ± 1
self-splicing fitness (ln) (37 °C): -2.28 ± 0.62

UGCUAGCAAUAUUACGUUAC
self-splicing fitness (ln) (30 °C): -5.2 ± 1

CCACAGCAAUAUUACGCGCG
self-splicing fitness (ln) (30 °C): -1.02 ± 0.042
self-splicing fitness (ln) (37 °C): -0.161 ± 0.056

AUGUAGCAAUAUUACGGUGC
self-splicing fitness (ln) (37 °C): -3.77 ± 1

CCGAAGCAAUAUUACGCUAU
self-splicing fitness (ln) (30 °C): -3.8 ± 0.73
self-splicing fitness (ln) (37 °C): -2.24 ± 0.25

CAUGAGCAAUAUUACGGAUC
self-splicing fitness (ln) (30 °C): -4.44 ± 0.59
self-splicing fitness (ln) (37 °C): -2.94 ± 0.33

GCGGAGCAAUAUUACGUGCU
self-splicing fitness (ln) (30 °C): -3.8 ± 0.53
self-splicing fitness (ln) (37 °C): -2.74 ± 0.54

GGUCAGCAAUAUUACGGGGG
self-splicing fitness (ln) (30 °C): -3.31 ± 0.54

UUCUAGCAAUAUUACGAGCC
self-splicing fitness (ln) (30 °C): -3.14 ± 0.61
self-splicing fitness (ln) (37 °C): -2.28 ± 0.56

GUGGAGCAAUAUUACGGGUC
self-splicing fitness (ln) (30 °C): -2.25 ± 0.55
self-splicing fitness (ln) (37 °C): -2.26 ± 0.6

AAGUAGCAAUAUUACGCCGC
self-splicing fitness (ln) (37 °C): -2.62 ± 0.54

CCAUAGCAAUAUUACGGGAC
self-splicing fitness (ln) (30 °C): -4.29 ± 0.52

UUGUAGCAAUAUUACGCUUC
self-splicing fitness (ln) (30 °C): -3.08 ± 0.74
self-splicing fitness (ln) (37 °C): -1.8 ± 0.83

GCUUAGCAAUAUUACGUCAC
self-splicing fitness (ln) (30 °C): -4.29 ± 1

AGUCAGCAAUAUUACGCGGG
self-splicing fitness (ln) (30 °C): -2.8 ± 0.16
self-splicing fitness (ln) (37 °C): -1.06 ± 0.2

GGAGAGCAAUAUUACGCCCU
self-splicing fitness (ln) (37 °C): -1.11 ± 0.65

AAUGAGCAAUAUUACGAAUC
self-splicing fitness (ln) (30 °C): -4.61 ± 0.72

CGCAAGCAAUAUUACGUAGG
self-splicing fitness (ln) (30 °C): -1.24 ± 0.057
self-splicing fitness (ln) (37 °C): -0.509 ± 0.075

GCAGAGCAAUAUUACGCUCA
self-splicing fitness (ln) (30 °C): -1.66 ± 0.15
self-splicing fitness (ln) (37 °C): -0.832 ± 0.15

UCCGAGCAAUAUUACGACGC
self-splicing fitness (ln) (30 °C): -4.48 ± 1

GUGGAGCAAUAUUACGGGAC
self-splicing fitness (ln) (37 °C): -2.66 ± 0.76

GGCGAGCAAUAUUACGUACG
self-splicing fitness (ln) (30 °C): -2.43 ± 0.18
self-splicing fitness (ln) (37 °C): -1.35 ± 0.22

UCAGAGCAAUAUUACGUCCU
self-splicing fitness (ln) (37 °C): -3.26 ± 0.52

CUCGAGCAAUAUUACGUAUA
self-splicing fitness (ln) (30 °C): -3.81 ± 1

UAGUAGCAAUAUUACGAGAA
self-splicing fitness (ln) (30 °C): -3.23 ± 0.74

GCUGAGCAAUAUUACGCCCC
self-splicing fitness (ln) (30 °C): -2.79 ± 1.2
self-splicing fitness (ln) (37 °C): -1.67 ± 0.53

CUAGAGCAAUAUUACGAGCC
self-splicing fitness (ln) (30 °C): -2.52 ± 0.8
self-splicing fitness (ln) (37 °C): -3.4 ± 0.61

UUAUAGCAAUAUUACGCUGC
self-splicing fitness (ln) (30 °C): -2.37 ± 0.78

AGAGAGCAAUAUUACGCCUC
self-splicing fitness (ln) (37 °C): -2.15 ± 0.79

CGUUAGCAAUAUUACGCCGA
self-splicing fitness (ln) (37 °C): -1.29 ± 1.2
